Among the test systems are MeWo; RPMI7951; RVH-421; SkMel28; SkMel30; SkMel5; UACC257; UACC62.
What all share (assay): cleaved PARP positive nuclei fraction relative to DMSO control; melanoma cells; higher = more apoptosis
Common to all, as to details: library dose: low library concentration; 72 h

The other results are listed elsewhere or left out. Many values rest on one well or one pass, so single values are uncertain.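 Imaging used 1,536-well plates; nuclei positive for cleaved PARP by antibody were divided by total DNA-stained nuclei to yield the apoptosis fraction. Doses for screening kept most cells viable, and cell lines differ markedly in resting and induced cleaved-PARP levels.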

In the case of `Cc1ccc(NC(=O)c2cccc(N(C)C)c2)cc1NC(=O)c1ccc(O)cc1` + CC(C)(C)c1cnc(CSc2cnc(NC(=O)C3CCNCC3)s2)o1 [SNS-032] (first compound 2 µM, partner dose 0.01 µM), the “cleaved PARP positive nuclei fraction” value is 64.5% with MeWo; 135% in the assay on RPMI7951; 82.6% in the assay with RVH-421; 29.1% with SkMel28; 53.6% in the assay on SkMel30; 64.8% in the assay on SkMel5. Moreover, the “cleaved PARP positive nuclei fraction” value is 61.9% in the assay on UACC257 and 293% in the assay with UACC62.

As to `O=C(Nc1cccc(Cl)c1)Nc1ncc(CCNc2ncnc3ccsc23)s1` + O=C(O)c1ccc(-c2c[nH]c3ncc(-c4ccccc4)cc23)cc1C1CCCC1 [GSK650394] (first compound 0.0008 µM, partner dose 0.16 µM), the “cleaved PARP positive nuclei fraction” value in the assay with MeWo is 102%; with RPMI7951, 109%; in the assay on RVH-421, 23.9%; with SkMel28, 67.3%; with SkMel30, 65.6%; in the assay on SkMel5 it was 77.5%. Also, the “cleaved PARP positive nuclei fraction” value is 42.1% in the assay on UACC257 and 117% with UACC62.

Turning to `Nc1cccc2c1CN(C1CCC(=O)NC1=O)C2=O` (stereo not drawn) [lenalidomide] + COc1cc(N2CCC(N3CCN(C)CC3)CC2)ccc1Nc1ncc(Cl)c(Nc2ccccc2S(=O)(=O)C(C)C)n1 [NVP-TAE684] (first compound 1 µM, partner dose 0.08 µM), the “cleaved PARP positive nuclei fraction” value in the assay with MeWo was determined as 118%; in the assay with RPMI7951, 95.5%; with RVH-421, 40.1%; with SkMel28 it was 124%; in the assay with SkMel30, 71.1%; with SkMel5 it was 124%. In addition, the “cleaved PARP positive nuclei fraction” value in the assay with UACC257 was determined as 131%; with UACC62, 105%.

As for `NC(=O)Nc1cc(-c2cccc(F)c2)sc1C(=O)N[C@H]1CCCNC1` + O=C(Nc1cccc(Cl)c1)Nc1ncc(CCNc2ncnc3ccsc23)s1 [SNS314] (first compound 0.02 µM, partner dose 0.0008 µM), the “cleaved PARP positive nuclei fraction” value with MeWo amounted to 86.6%; with RPMI7951, 152%; with RVH-421, 49.9%; with SkMel28 it was 115%; in the assay with SkMel30, 48.4%; with SkMel5, 133%. The results for the “cleaved PARP positive nuclei fraction” value with UACC257 and with UACC62 were 65% and 154%, respectively.

For `C=CCn1c(=O)c2cnc(Nc3ccc(N4CCN(C)CC4)cc3)nc2n1-c1cccc(C(C)(C)O)n1` + Cc1cc([N+](=O)[O-])ccc1NS(=O)(=O)c1cc(Cl)ccc1Cl [FH535] (first compound 0.02 µM, partner dose 1 µM), the “cleaved PARP positive nuclei fraction” value in the assay on MeWo was found to be 164%; in the assay with RPMI7951 it was 153%; in the assay on RVH-421, 127%; in the assay with SkMel28 it was 79.8%; in the assay with SkMel30, 404%; in the assay with SkMel5 it was 73%. For the same compound, the “cleaved PARP positive nuclei fraction” value in the assay with UACC257 turned out to be 219%; with UACC62 it was 373%.

On to `Nc1cccc2c1CN(C1CCC(=O)NC1=O)C2=O` (stereo not drawn) [lenalidomide] + Oc1cc(-c2nc(-c3ccccc3)[nH]c2-c2ccncc2)ccc1Cl [L779450] (first compound 1 µM, partner dose 0.2 µM), for which the “cleaved PARP positive nuclei fraction” value in the assay with MeWo is 76.9%; in the assay with RPMI7951, 90.6%; in the assay on RVH-421 it was 138%; with SkMel28, 91.2%; with SkMel30, 16.5%; in the assay on SkMel5, 112%. The figures for the “cleaved PARP positive nuclei fraction” value in the assay with UACC257 and with UACC62 were 137% and 70.1%, respectively.

On to `NC(=O)Nc1cc(-c2cccc(F)c2)sc1C(=O)N[C@H]1CCCNC1` + N#Cc1c(O)c2c(-c3ccc(-c4ccccc4O)cc3)csc2[nH]c1=O [A769662] (first compound 0.02 µM, partner dose 2 µM), for which the “cleaved PARP positive nuclei fraction” value with MeWo was found to be 113%; in the assay on RPMI7951, 83.4%; in the assay on RVH-421, 37.7%; in the assay with SkMel28 it was 130%; in the assay with SkMel30, 87.3%; with SkMel5 it was 59.5%. The “cleaved PARP positive nuclei fraction” value in the assay on UACC257 is 47.3%; in the assay with UACC62, 422%.

Consider `OCCn1cc(-c2cnc3nnn(Cc4ccc5ncccc5c4)c3n2)cn1` + CCN(CC)CCCCNc1ncc2cc(-c3cc(OC)cc(OC)c3)c(NC(=O)NC(C)(C)C)nc2n1 [PD173074] (first compound 1 µM, partner dose 0.1 µM), for which the “cleaved PARP positive nuclei fraction” value in the assay with MeWo was 602%; in the assay on RPMI7951, 76.7%; in the assay on RVH-421 it was 88.8%; in the assay with SkMel28, 44.4%; with SkMel30 it was 25.8%; in the assay with SkMel5 it was 58.8%. Also, the “cleaved PARP positive nuclei fraction” value with UACC257 is 75.4%; in the assay with UACC62, 34%.

As for `C#Cc1cccc(Nc2ncnc3cc(OCCOC)c(OCCOC)cc23)c1` [erlotinib] + COc1ccc(Cl)c(Nc2nc3ccccc3nc2NS(=O)(=O)c2cccc(NC(=O)C(C)(C)N)c2)c1 [XL147] (first compound 0.8 µM, partner dose 0.8 µM), the “cleaved PARP positive nuclei fraction” value with MeWo was 202%; with RPMI7951, 154%; in the assay with RVH-421, 68.2%; in the assay on SkMel28, 91.7%; in the assay with SkMel30 it was 77.6%; in the assay on UACC62, 38.9%.

For the compound `CC(C)(C)c1cnc(CSc2cnc(NC(=O)C3CCNCC3)s2)o1` + O=S(=O)(c1ccccc1)N(CC(F)(F)F)c1ccc(C(O)(C(F)(F)F)C(F)(F)F)cc1 [T0901317] (first compound 0.01 µM, partner dose 1.4 µM), the “cleaved PARP positive nuclei fraction” value with MeWo was found to be 59.3%; with RPMI7951, 104%; with RVH-421, 64.2%; in the assay with SkMel28, 64.7%; with SkMel30, 38.8%; in the assay with SkMel5 it was 48.2%. For the same compound, the figures for the “cleaved PARP positive nuclei fraction” value in the assay on UACC257 and in the assay with UACC62 were 73.8% and 119%, respectively.

The record behind these values is the supplement of paper PMC4604168 (melanoma cell lines).
